Experimental data taken from the supplement of paper PMC10849652.
The list shows a part of the results.

The chains behind the UniProt entries cited, without tags or fusion partners. Where a name states a change or a piece, a line headed by the entry shows the natural chain unless it says otherwise.
UniProt Q9BZ23: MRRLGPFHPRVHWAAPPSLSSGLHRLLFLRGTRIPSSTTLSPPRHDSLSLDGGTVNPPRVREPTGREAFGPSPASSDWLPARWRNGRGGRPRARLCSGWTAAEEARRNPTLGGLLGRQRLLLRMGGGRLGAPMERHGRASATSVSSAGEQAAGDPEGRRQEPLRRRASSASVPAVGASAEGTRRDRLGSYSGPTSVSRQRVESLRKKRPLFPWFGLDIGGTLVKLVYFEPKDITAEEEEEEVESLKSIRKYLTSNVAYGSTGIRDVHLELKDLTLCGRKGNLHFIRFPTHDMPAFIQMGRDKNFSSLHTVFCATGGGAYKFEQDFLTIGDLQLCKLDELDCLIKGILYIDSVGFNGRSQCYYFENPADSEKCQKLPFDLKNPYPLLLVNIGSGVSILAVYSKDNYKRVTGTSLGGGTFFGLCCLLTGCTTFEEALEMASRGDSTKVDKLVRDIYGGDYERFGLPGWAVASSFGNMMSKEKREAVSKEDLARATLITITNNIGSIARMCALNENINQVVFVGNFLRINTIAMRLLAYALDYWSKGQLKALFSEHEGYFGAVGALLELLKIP
UniProt Q9NX40: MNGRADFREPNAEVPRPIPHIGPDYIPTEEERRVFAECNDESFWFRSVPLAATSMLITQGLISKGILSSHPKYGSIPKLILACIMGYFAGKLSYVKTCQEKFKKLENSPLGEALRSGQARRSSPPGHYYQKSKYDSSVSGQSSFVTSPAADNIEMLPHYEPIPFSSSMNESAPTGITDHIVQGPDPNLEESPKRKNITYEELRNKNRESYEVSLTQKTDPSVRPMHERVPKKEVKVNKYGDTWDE
UniProt Q96E22: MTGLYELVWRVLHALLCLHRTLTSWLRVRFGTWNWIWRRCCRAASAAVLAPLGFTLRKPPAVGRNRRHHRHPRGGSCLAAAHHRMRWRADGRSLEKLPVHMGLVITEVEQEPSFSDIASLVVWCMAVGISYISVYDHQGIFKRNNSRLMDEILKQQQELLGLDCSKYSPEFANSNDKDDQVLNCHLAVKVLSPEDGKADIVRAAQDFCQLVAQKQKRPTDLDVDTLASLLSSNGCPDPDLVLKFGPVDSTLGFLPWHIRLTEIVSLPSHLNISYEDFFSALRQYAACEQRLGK
UniProt Q92621: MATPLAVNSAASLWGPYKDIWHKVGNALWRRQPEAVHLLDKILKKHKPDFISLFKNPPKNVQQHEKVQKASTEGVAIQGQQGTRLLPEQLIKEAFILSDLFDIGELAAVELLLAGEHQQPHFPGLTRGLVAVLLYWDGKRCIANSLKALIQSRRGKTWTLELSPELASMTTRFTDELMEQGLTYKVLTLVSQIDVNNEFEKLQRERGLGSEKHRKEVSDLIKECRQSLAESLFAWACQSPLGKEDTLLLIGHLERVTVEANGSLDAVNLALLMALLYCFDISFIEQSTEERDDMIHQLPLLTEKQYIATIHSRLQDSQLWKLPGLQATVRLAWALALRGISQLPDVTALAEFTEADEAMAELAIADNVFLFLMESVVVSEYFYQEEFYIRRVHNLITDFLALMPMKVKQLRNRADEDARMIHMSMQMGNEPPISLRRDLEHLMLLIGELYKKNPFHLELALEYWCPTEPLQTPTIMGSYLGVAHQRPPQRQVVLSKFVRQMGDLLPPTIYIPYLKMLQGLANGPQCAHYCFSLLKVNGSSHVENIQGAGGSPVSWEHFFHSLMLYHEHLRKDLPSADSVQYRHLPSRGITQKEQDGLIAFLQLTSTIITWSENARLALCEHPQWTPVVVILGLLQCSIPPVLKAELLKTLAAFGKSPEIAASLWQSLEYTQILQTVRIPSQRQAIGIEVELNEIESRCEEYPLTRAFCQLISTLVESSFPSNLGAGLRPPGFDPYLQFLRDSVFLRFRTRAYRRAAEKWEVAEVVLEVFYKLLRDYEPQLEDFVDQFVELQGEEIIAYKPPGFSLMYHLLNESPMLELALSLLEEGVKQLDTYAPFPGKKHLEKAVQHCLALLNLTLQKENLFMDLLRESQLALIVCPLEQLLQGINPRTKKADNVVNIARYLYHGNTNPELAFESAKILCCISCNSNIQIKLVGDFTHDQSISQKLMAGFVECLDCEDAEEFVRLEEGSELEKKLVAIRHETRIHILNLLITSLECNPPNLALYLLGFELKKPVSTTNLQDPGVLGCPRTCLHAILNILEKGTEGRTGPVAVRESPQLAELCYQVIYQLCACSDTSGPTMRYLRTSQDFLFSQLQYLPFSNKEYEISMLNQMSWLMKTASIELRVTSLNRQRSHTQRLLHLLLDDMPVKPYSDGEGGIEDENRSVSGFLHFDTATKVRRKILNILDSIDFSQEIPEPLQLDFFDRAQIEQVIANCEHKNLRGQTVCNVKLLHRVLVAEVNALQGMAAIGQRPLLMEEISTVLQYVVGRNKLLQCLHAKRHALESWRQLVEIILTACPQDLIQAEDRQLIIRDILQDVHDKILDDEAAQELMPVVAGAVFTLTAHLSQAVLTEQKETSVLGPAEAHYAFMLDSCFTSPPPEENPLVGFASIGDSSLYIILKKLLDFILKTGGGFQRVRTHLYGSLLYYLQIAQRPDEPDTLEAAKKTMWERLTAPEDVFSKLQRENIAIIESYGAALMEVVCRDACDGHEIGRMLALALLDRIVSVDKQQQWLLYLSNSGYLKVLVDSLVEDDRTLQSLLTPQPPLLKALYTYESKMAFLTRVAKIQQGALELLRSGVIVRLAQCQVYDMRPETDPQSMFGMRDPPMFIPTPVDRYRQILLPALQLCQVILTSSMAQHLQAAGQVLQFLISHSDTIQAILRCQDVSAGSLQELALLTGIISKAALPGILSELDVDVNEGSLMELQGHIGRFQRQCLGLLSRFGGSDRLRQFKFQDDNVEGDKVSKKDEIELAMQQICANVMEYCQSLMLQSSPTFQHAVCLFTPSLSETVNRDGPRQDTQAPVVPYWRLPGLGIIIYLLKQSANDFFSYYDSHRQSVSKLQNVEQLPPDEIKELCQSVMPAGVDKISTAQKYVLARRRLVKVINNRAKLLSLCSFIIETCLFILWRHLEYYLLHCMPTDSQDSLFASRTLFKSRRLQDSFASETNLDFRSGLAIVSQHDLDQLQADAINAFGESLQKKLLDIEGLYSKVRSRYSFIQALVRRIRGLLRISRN
UniProt Q8WZ82: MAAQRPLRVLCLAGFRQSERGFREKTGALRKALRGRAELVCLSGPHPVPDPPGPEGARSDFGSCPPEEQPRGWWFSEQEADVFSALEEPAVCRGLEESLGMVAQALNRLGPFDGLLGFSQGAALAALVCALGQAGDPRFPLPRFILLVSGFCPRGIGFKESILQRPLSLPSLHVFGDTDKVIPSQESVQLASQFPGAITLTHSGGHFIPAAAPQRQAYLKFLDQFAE
UniProt Q99497, whole entry, looked up: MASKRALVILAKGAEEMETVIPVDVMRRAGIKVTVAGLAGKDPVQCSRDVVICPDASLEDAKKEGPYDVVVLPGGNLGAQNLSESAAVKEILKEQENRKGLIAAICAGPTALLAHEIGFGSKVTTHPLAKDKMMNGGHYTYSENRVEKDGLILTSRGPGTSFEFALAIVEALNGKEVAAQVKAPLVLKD
UniProt Q7Z3B4: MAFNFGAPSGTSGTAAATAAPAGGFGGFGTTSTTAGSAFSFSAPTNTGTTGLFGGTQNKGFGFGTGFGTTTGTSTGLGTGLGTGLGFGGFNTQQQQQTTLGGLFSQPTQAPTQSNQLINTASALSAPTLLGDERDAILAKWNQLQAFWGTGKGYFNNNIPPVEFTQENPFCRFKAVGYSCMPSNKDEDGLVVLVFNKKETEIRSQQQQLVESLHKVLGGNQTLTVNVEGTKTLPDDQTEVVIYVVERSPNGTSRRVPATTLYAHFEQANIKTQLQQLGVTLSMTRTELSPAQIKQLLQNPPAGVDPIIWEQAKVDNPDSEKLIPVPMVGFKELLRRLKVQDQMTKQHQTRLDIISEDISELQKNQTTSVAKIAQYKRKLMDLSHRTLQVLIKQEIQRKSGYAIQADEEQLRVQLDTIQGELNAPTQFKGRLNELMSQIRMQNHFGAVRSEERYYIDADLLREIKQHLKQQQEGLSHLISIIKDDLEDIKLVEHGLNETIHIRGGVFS
UniProt Q9BPZ3: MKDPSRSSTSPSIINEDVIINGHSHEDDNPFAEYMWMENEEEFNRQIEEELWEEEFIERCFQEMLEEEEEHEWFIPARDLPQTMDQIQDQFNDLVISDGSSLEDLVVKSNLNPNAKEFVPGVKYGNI
UniProt Q8N543: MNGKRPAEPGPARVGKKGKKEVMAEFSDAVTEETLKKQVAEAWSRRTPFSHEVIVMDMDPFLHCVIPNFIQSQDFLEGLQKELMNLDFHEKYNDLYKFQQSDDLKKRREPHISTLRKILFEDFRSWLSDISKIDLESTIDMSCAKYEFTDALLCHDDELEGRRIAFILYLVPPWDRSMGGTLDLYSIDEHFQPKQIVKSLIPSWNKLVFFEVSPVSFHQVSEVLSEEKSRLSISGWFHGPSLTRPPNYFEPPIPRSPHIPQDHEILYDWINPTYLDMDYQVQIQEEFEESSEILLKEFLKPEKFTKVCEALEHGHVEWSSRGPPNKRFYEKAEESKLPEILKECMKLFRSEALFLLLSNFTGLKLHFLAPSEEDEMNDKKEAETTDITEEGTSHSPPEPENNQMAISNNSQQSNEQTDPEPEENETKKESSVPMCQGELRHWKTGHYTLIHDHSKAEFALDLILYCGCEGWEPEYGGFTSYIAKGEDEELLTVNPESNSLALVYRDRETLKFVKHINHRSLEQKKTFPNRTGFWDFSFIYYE
UniProt Q9BXS6: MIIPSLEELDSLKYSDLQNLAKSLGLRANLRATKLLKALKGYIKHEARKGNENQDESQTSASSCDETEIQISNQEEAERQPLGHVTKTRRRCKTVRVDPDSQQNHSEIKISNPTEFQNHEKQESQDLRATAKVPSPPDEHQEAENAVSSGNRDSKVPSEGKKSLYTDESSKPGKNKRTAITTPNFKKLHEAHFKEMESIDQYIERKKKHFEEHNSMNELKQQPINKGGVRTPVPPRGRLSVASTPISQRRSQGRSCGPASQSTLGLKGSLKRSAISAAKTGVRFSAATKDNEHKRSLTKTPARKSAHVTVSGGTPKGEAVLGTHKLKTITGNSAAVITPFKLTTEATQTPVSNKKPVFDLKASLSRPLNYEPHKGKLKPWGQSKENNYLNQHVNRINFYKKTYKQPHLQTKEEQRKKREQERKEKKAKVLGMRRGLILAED
UniProt Q9H6K4: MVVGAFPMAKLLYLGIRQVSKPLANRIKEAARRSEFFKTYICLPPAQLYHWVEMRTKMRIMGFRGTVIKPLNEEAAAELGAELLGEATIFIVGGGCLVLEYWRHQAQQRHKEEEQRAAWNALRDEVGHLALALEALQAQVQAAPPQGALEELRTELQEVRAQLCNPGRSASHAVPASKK
UniProt P55809: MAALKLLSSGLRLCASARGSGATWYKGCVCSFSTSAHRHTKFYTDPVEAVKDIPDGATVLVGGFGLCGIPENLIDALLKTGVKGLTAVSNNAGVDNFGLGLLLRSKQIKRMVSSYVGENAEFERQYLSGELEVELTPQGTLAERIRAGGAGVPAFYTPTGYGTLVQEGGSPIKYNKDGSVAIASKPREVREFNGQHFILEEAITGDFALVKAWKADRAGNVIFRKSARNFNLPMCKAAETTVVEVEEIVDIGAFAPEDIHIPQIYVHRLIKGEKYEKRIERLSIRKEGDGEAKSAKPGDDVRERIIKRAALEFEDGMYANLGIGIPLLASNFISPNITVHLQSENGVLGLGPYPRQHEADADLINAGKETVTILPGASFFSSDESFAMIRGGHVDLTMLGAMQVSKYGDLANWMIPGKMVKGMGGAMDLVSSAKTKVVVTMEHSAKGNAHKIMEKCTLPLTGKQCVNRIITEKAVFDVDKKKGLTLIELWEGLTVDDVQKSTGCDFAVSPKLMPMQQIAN
UniProt Q9BRP4: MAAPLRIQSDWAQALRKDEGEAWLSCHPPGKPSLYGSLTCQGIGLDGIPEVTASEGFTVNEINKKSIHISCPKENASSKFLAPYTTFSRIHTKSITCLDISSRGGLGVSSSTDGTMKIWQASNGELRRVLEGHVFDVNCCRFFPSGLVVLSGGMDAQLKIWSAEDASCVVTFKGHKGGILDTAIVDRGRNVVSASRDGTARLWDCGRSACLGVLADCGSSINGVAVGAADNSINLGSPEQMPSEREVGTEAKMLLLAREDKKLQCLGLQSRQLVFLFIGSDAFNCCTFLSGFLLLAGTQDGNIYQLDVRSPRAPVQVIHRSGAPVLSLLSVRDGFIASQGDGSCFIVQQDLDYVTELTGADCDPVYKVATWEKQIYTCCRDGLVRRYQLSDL

Key:
Assay in all cases: log2 fold change, soluble protein after heating vs DMSO (PISA); higher = thermal stabilisation; K562 lysate, 10 uM; active = over 0.2 and 3.5 SD of the protein, either way, in both replicates (recomputed)
lapatinib = compound: CS(=O)(=O)CCNCc1ccc(-c2ccc3ncnc(Nc4ccc(OCc5cccc(F)c5)c(Cl)c4)c3c2)o1 [lapatinib]
How it was run: (§1)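 A 30 min treatment with 10 μM compound was applied to crude K562 extract at 1 mg/mL protein in PBS pH 7.4 with 1 mM MgCl2. Heating for 3 min spanned 48°C-58°C, after which aliquots were pooled, adjusted to 0.5% NP-40 at 4°C and spun at 21,000xg for 90 min. TMTpro 16plex LC-MS/MS of the supernatant, with channel sums equalised, gave values recorded as log-two fold change in thermal stability against solvent controls, from duplicates.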

pictilisib = compound: CS(=O)(=O)N1CCN(Cc2cc3nc(-c4cccc5[nH]ncc45)nc(N4CCOCC4)c3s2)CC1 [pictilisib]
How it was run: as §1

crizotinib = compound: C[C@@H](Oc1cc(-c2cnn(C3CCNCC3)c2)cnc1N)c1c(Cl)ccc(F)c1Cl [crizotinib]
How it was run: as §1

[1] = compound: C[C@H](C1=CC=C(C=C1)C(=O)NC2=C3C=CNC3=NC=C2)N
How it was run: as §1

duvelisib = compound: C[C@H](Nc1ncnc2nc[nH]c12)c1cc2cccc(Cl)c2c(=O)n1-c1ccccc1 [duvelisib]
How it was run: as §1

gandotinib = compound: Cc1cc(Nc2cc(CN3CCOCC3)c3nc(C)c(Cc4ccc(Cl)cc4F)n3n2)n[nH]1 [gandotinib]
How it was run: as §1

tozasertib = compound: Cc1cc(Nc2cc(N3CCN(C)CC3)nc(Sc3ccc(NC(=O)C4CC4)cc3)n2)n[nH]1 [tozasertib]
How it was run: as §1

doramapimod = compound: Cc1ccc(-n2nc(C(C)(C)C)cc2NC(=O)Nc2ccc(OCCN3CCOCC3)c3ccccc23)cc1 [doramapimod]
How it was run: as §1

bafetinib = compound: Cc1ccc(NC(=O)c2ccc(CN3CC[C@H](N(C)C)C3)c(C(F)(F)F)c2)cc1Nc1nccc(-c2cncnc2)n1 [bafetinib]
How it was run: as §1

[2] = compound: Cc1cccc(CC(=O)N2CCc3c2ccc(-c2cn(C)c4ncnc(N)c24)c3F)n1
How it was run: as §1

nilotinib = compound: Cc1cn(-c2cc(NC(=O)c3ccc(C)c(Nc4nccc(-c5cccnc5)n4)c3)cc(C(F)(F)F)c2)cn1 [nilotinib]
How it was run: as §1

[3] = compound: Cc1nc(Nc2n[nH]c3c2CN(C(=O)N[C@H](CN(C)C)c2ccccc2)C3(C)C)c2sccc2n1
How it was run: as §1

dasatinib = compound: Cc1nc(Nc2ncc(C(=O)Nc3c(C)cccc3Cl)s2)cc(N2CCN(CCO)CC2)n1 [dasatinib]
How it was run: as §1

[4] = compound: Cc1ncc(-c2ccnc(Nc3ccc(S(C)(=O)=O)cc3)n2)n1C(C)C
How it was run: as §1

[5] = compound: Cn1cc(-c2ccc3c(c2)CCN3C(=O)Cc2cccc(C(F)(F)F)c2)c2c(N)ncnc21
How it was run: as §1

quisinostat = compound: Cn1cc(CNCC2CCN(c3ncc(C(=O)NO)cn3)CC2)c2ccccc21 [quisinostat]
How it was run: as §1

tipifarnib = compound: Cn1cncc1[C@@](N)(c1ccc(Cl)cc1)c1ccc2c(c1)c(-c1cccc(Cl)c1)cc(=O)n2C [tipifarnib]
How it was run: as §1

[6] = compound: NC(=O)Nc1cc(-c2cccc(F)c2)sc1C(=O)N[C@H]1CCCNC1
How it was run: as §1

[7] = compound: NC(=O)c1cnc(N[C@@H]2CCCC[C@@H]2N)nc1Nc1cccc(-n2nccn2)c1
How it was run: as §1

[8] = compound: NC1(c2ccc(-c3nc4ccn5c(=O)[nH]nc5c4cc3-c3ccccc3)cc2)CCC1
How it was run: as §1

Measured: log2 fold change

PANK2 (UniProt Q9BZ23)
inactive: lapatinib 0.079 | pictilisib 0.143 | crizotinib -0.073 | [1] -0.023 | duvelisib -0.126 | gandotinib 0.077 | tozasertib 0.008 | doramapimod -0.008 | bafetinib -0.029 | [2] 0.095 | nilotinib -0.068 | [3] -0.111 | dasatinib 0.135 | [4] 0.001 | [5] -0.032 | quisinostat 0.045 | tipifarnib 0.126 | [6] -0.053 | [7] -0.005

OCIAD1 (UniProt Q9NX40)
inactive: lapatinib 0.003 | pictilisib -0.053 | crizotinib 0.022 | [1] -0.015 | duvelisib -0.013 | gandotinib 0.019 | tozasertib -0.025 | doramapimod -0.031 | bafetinib 0.001 | [2] -0.086 | nilotinib -0.003 | [3] 0.011 | dasatinib 0.006 | [4] -0.003 | [5] -0.005 | quisinostat -0.002 | tipifarnib 0.005 | [6] -0.017 | [7] -0.002 | [8] -0.016

NUS1 (UniProt Q96E22)
inactive: lapatinib 0.008 | pictilisib -0.015 | crizotinib 0.099 | [1] 0.169 | duvelisib 0.073 | gandotinib -0.105 | tozasertib 0.001 | doramapimod -0.013 | bafetinib -0.028 | [2] -0.023 | nilotinib -0.081 | [3] 0.052 | dasatinib 0.129 | [4] 0.032 | [5] -0.054 | quisinostat 0.067 | tipifarnib -0.005 | [6] 0.065 | [7] 0.042 | [8] -0.001

NUP205 (UniProt Q92621)
inactive: lapatinib -0.03 | pictilisib -0.041 | crizotinib -0.1 | [1] -0.047 | duvelisib -0.008 | gandotinib -0.143 | tozasertib 0.015 | doramapimod 0.043 | bafetinib -0.089 | [2] 0.031 | nilotinib -0.014 | [3] 0.004 | dasatinib -0.04 | [4] 0.008 | [5] 0.04 | quisinostat -0.041 | tipifarnib -0.027 | [6] 0.052 | [7] 0.047 | [8] -0.012

OVCA2 (UniProt Q8WZ82)
inactive: lapatinib -0.002 | pictilisib -0.025 | crizotinib -0.055 | [1] 0.11 | duvelisib 0.103 | gandotinib -0.099 | tozasertib 0.046 | doramapimod 0.051 | bafetinib 0.016 | [2] 0.006 | nilotinib 0.019 | [3] 0 | dasatinib -0.058 | [4] -0.054 | [5] -0.12 | quisinostat 0.023 | tipifarnib 0.077 | [6] -0.022 | [7] 0.075 | [8] -0.015

PARK7 (UniProt Q99497)
inactive: lapatinib -0.03 | pictilisib -0.031 | crizotinib -0.002 | [1] 0.025 | duvelisib 0.013 | gandotinib -0.009 | tozasertib 0.005 | doramapimod -0.025 | bafetinib 0.078 | [2] -0.065 | nilotinib 0.043 | [3] -0.004 | dasatinib -0.007 | [4] 0.051 | [5] -0.008 | quisinostat 0.009 | tipifarnib 0.018 | [6] -0.016 | [7] -0.008 | [8] 0.005

NUP54 (UniProt Q7Z3B4)
inactive: lapatinib 0.04 | pictilisib -0.025 | crizotinib 0.003 | [1] -0.131 | duvelisib -0.007 | gandotinib 0.108 | tozasertib 0.023 | doramapimod -0.031 | bafetinib -0.014 | [2] 0.186 | nilotinib 0.03 | [3] -0.016 | dasatinib -0.041 | [4] 0.026 | [5] 0 | quisinostat 0.008 | tipifarnib -0.068 | [6] 0.044 | [7] 0.002 | [8] -0.007

PAIP2 (UniProt Q9BPZ3)
inactive: lapatinib 0.013 | pictilisib -0.036 | crizotinib 0.021 | [1] -0.008 | duvelisib -0.04 | gandotinib 0.022 | tozasertib 0.035 | doramapimod 0.043 | bafetinib 0.073 | [2] 0.02 | nilotinib 0.136 | [3] 0.062 | dasatinib -0.047 | [4] -0.009 | [5] -0.049 | quisinostat 0.007 | tipifarnib -0.1 | [6] -0.087 | [7] -0.02 | [8] -0.018

ODR4 (UniProt Q5SWX8)
inactive: lapatinib -0.06 | pictilisib -0.078 | crizotinib -0.084 | [1] 0.143 | duvelisib 0.016 | gandotinib -0.141 | tozasertib 0.082 | doramapimod 0.043 | bafetinib -0.04 | [2] -0.056 | nilotinib 0.007 | [3] 0.002 | dasatinib 0.009 | [4] -0.015 | [5] -0.018 | quisinostat -0.132 | tipifarnib 0.03 | [6] 0.013 | [7] 0.034 | [8] -0.035

OGFOD1 (UniProt Q8N543)
inactive: lapatinib 0 | pictilisib -0.008 | crizotinib 0.02 | [1] 0.002 | duvelisib -0.01 | gandotinib -0.011 | tozasertib -0.017 | doramapimod -0.017 | bafetinib -0.047 | [2] 0.008 | nilotinib -0.027 | [3] 0.007 | dasatinib 0.008 | [4] -0.035 | [5] 0.018 | quisinostat 0.041 | tipifarnib 0.021 | [6] 0.028 | [7] 0.008 | [8] 0.07

OGA (UniProt O60502)
inactive: lapatinib -0.012 | pictilisib -0.019 | crizotinib -0.012 | [1] 0.026 | duvelisib -0.001 | gandotinib -0.054 | tozasertib -0.007 | doramapimod -0.004 | bafetinib 0.002 | [2] -0.018 | nilotinib 0.007 | [3] 0.006 | dasatinib 0 | [4] -0.006 | [5] 0.023 | quisinostat -0.006 | tipifarnib -0.003 | [6] 0.003 | [7] 0.008 | [8] 0.002

NUSAP1 (UniProt Q9BXS6)
inactive: lapatinib -0.004 | pictilisib -0.018 | crizotinib 0.045 | duvelisib -0.022 | gandotinib 0.141 | tozasertib -0.001 | doramapimod -0.011 | bafetinib 0.008 | nilotinib -0.001 | [3] 0.004 | dasatinib 0.045 | [4] -0.009 | [5] -0.047 | quisinostat 0.038 | tipifarnib -0.016 | [6] -0.024 | [7] 0.002 | [8] -0.055
active: [1] -0.334 | [2] 0.217

OXA1L (UniProt Q15070)
inactive: lapatinib -0.036 | pictilisib -0.015 | crizotinib -0.051 | [1] -0.097 | duvelisib -0.034 | gandotinib 0 | tozasertib 0.038 | doramapimod -0.022 | bafetinib -0.061 | [2] 0.09 | nilotinib -0.007 | [3] -0.019 | dasatinib 0.01 | [4] 0.056 | [5] -0.009 | quisinostat 0.027 | tipifarnib -0.025 | [6] 0 | [7] 0.011 | [8] -0.01

Quoted from the entries so far (2 entries):
OGA (UniProt O60502)
inactive: lapatinib -0.012 | pictilisib -0.019 | crizotinib -0.012 | [1] 0.026 | duvelisib -0.001 | gandotinib -0.054 | tozasertib -0.007 | doramapimod -0.004 | bafetinib 0.002 | [2] -0.018 | nilotinib 0.007 | [3] 0.006 | dasatinib 0 | [4] -0.006 | [5] 0.023 | quisinostat -0.006 | tipifarnib -0.003 | [6] 0.003 | [7] 0.008 | [8] 0.002

NUSAP1 (UniProt Q9BXS6)
inactive: lapatinib -0.004 | pictilisib -0.018 | crizotinib 0.045 | duvelisib -0.022 | gandotinib 0.141 | tozasertib -0.001 | doramapimod -0.011 | bafetinib 0.008 | nilotinib -0.001 | [3] 0.004 | dasatinib 0.045 | [4] -0.009 | [5] -0.047 | quisinostat 0.038 | tipifarnib -0.016 | [6] -0.024 | [7] 0.002 | [8] -0.055
active: [1] -0.334 | [2] 0.217

(cont.)

OPA3 (UniProt Q9H6K4)
inactive: lapatinib 0.008 | pictilisib -0.014 | crizotinib -0.03 | [1] 0.045 | duvelisib -0.03 | gandotinib 0.012 | tozasertib -0.174 | doramapimod -0.028 | bafetinib -0.091 | [2] 0.089 | nilotinib -0.097 | [3] -0.039 | dasatinib -0.012 | [4] 0.103 | [5] -0.013 | quisinostat 0.013 | tipifarnib -0.005 | [6] 0.024 | [7] -0.015 | [8] -0.084

OXCT1 (UniProt P55809)
inactive: lapatinib 0.001 | pictilisib -0.036 | crizotinib 0.013 | [1] 0.003 | duvelisib -0.006 | gandotinib -0.003 | tozasertib -0.01 | doramapimod -0.016 | bafetinib 0.015 | [2] -0.026 | nilotinib 0.018 | [3] 0 | dasatinib -0.022 | [4] 0.029 | [5] 0.001 | quisinostat 0.021 | tipifarnib 0.033 | [6] 0.014 | [7] -0.008 | [8] -0.004

PAAF1 (UniProt Q9BRP4)
inactive: lapatinib -0.011 | pictilisib -0.012 | crizotinib 0.006 | [1] -0.043 | duvelisib 0.009 | gandotinib 0.055 | tozasertib -0.047 | doramapimod 0.004 | bafetinib 0.011 | [2] 0.048 | nilotinib 0.017 | [3] 0.005 | dasatinib 0.028 | [4] -0.015 | [5] 0.012 | quisinostat 0.004 | tipifarnib 0.011 | [6] -0.021 | [7] -0.013 | [8] 0.002
